Results are given in words; binding and its absence hold for the method and conditions named. In cells and extracts the contact can be indirect. Some binding calls cover weakened binding; strength is not graded here.
Molecular target: EXOC6 (94 kDa), subunit of the human exocyst complex (human) (UniProt Q8TAG9)
Assay: Strep affinity co-purification through Twin-Strep-tagged EXOC5 from co-infected Sf9 cells, SDS-PAGE

Chains of the proteins cited; added tags and fusions are not shown.
UniProt Q8TAG9: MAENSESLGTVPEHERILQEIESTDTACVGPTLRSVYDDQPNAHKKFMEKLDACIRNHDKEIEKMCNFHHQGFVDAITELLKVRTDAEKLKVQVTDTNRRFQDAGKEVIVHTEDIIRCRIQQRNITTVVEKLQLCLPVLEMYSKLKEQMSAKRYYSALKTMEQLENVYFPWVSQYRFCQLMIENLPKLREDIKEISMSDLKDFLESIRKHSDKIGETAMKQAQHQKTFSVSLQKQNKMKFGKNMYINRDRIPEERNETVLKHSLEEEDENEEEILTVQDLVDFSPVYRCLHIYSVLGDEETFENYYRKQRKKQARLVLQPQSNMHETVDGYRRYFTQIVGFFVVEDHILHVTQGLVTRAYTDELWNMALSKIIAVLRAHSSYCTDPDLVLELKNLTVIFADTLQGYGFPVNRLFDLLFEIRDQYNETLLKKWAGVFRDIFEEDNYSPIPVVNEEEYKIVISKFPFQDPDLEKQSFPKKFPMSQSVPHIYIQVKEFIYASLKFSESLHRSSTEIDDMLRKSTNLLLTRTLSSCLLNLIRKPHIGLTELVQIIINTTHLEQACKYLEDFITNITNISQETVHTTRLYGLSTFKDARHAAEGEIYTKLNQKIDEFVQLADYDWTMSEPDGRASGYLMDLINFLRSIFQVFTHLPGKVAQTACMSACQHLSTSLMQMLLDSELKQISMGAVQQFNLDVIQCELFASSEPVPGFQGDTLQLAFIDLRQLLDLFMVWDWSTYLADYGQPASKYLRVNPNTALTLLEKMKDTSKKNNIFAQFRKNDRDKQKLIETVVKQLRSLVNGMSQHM
UniProt O00471: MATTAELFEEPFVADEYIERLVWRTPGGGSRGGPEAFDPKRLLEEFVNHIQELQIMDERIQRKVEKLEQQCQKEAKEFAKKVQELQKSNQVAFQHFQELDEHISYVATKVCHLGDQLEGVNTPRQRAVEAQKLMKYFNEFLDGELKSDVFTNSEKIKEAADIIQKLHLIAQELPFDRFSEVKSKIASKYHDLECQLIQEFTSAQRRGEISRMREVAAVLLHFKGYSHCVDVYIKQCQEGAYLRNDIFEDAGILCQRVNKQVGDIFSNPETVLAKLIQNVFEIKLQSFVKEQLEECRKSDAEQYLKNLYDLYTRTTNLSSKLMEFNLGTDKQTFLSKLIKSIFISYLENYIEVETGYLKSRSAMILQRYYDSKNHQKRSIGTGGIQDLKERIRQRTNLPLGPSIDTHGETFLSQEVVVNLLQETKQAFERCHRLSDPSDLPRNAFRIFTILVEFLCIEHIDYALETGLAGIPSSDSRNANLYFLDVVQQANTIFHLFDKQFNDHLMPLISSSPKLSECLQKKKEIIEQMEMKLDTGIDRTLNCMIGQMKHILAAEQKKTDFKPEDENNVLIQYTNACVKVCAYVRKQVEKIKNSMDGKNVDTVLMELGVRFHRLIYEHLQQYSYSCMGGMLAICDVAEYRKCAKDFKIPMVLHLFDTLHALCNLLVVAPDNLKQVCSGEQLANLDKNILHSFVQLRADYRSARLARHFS

Substance: EXOC5 with a Twin-strep tag (expressed from recombinant plasmid 4V2-E1S5 / final transfer plasmid E1S547 / baculovirus BV-E1S547) (from UniProt O00471 1-708)
- binding: binds

Source: patent publication US20210062219A1
